In patent US20230242871A1, “GENERATION OF PRIMORDIAL GERM CELLS AND METHODS OF USING THE SAME” (The Board of Trustees of the Leland Stanfor Junior …, priority 2020, published 2023):

B1: CD307e (protein, UniProt Q96RD9 16-977, looked up)
Fc receptor-like protein 5: QFARTPRPIIFLQPPWTTVFQGERVTLTCKGFRFYSPQKTKWYHRYLGKEILRETPDNILEVQESGEYRCQAQGSPLSSPVHLDFSSASLILQAPLSVFEGDSVVLRCRAKAEVTLNNTIYKNDNVLAFLNKRTDFHIPHACLKDNGAYRCTGYKESCCPVSSNTVKIQVQEPFTRPVLRASSFQPISGNPVTLTCETQLSLERSDVPLRFRFFRDDQTLGLGWSLSPNFQITAMWSKDSGFYWCKAATMPYSVISDSPRSWIQVQIPASHPVLTLSPEKALNFEGTKVTLHCETQEDSLRTLYRFYHEGVPLRHKSVRCERGASISFSLTTENSGNYYCTADNGLGAKPSKAVSLSVTVPVSHPVLNLSSPEDLIFEGAKVTLHCEAQRGSLPILYQFHHEGAALERRSANSAGGVAISFSLTAEHSGNYYCTADNGFGPQRSKAVSLSVTVPVSHPVLTLSSAEALTFEGATVTLHCEVQRGSPQILYQFYHEDMPLWSSSTPSVGRVSFSFSLTEGHSGNYYCTADNGFGPQRSEVVSLFVTVPVSRPILTLRVPRAQAVVGDLLELHCEAPRGSPPILYWFYHEDVTLGSSSAPSGGEASFNLSLTAEHSGNYSCEANNGLVAQHSDTISLSVIVPVSRPILTFRAPRAQAVVGDLLELHCEALRGSSPILYWFYHEDVTLGKISAPSGGGASFNLSLTTEHSGIYSCEADNGLEAQRSEMVTLKVAVPVSRPVLTLRAPGTHAAVGDLLELHCEALRGSPLILYRFFHEDVTLGNRSSPSGGASLNLSLTAEHSGNYSCEADNGLGAQRSETVTLYITGLTANRSGPFATGVAGGLLSIAGLAAGALLLYCWLSRKAGRKPASDPARSPSDSDSQEPTYHNVPAWEELQPVYTNANPRGENVVYSEVRIIQEKKKHAVASDPRHLRNKGSPIIYSEVKVASTPVSGSLFLASSAPHR
B2: CD369 (protein, UniProt Q9BXN2 1-247, looked up)
C-type lectin domain family 7 …: MEYHPDLENLDEDGYTQLHFDSQSNTRIAVVSEKGSCAASPPWRLIAVILGILCLVILVIAVVLGTMAIWRSNSGSNTLENGYFLSRNKENHSQPTQSSLEDSVTPTKAVKTTGVLSSPCPPNWIIYEKSCYLFSMSLNSWDGSKRQCWQLGSNLLKIDSSNELGFIVKQVSSQPDNSFWIGLSRPQTEVPWLWEDGSTFSSNLFQIRTTATQENPSPNCVWIHVSVIYDQLCSVPSYSICEKKFSM
B3: CD371 (protein, UniProt Q5QGZ9 1-265, looked up)
C-type lectin domain family …: MSEEVTYADLQFQNSSEMEKIPEIGKFGEKAPPAPSHVWRPAALFLTLLCLLLLIGLGVLASMFHVTLKIEMKKMNKLQNISEELQRNISLQLMSNMNISNKIRNLSTTLQTIATKLCRELYSKEQEHKCKPCPRRWIWHKDSCYFLSDDVQTWQESKMACAAQNASLLKINNKNALEFIKSQSRSYDYWLGLSPEEDSTRGMRVDNIINSSAWVIRNAPDLNNMYCGYINRLYVQYYHCTYKKRMICEKMANPVQLGSTYFREA
B4: CD7 (protein, UniProt P09564 26-240, looked up)
T-cell antigen CD7: AQEVQQSPHCTTVPVGASVNITCSTSGGLRGIYLRQLGPQPQDIIYYEDGVVPTTDRRFRGRIDFSGSQDNLTITMHRLQLSDTGTYTCQAITEVNVYGSGTLVLVTEEQSQGWHRCSDAPPRASALPAPPTGSALPDPQTASALPDPPAASALPAALAVISFLLGLGLGVACVLARTQIKKLCSWRDKNSAACVVYEDMSHSRCNTLSSPNQYQ
B5: CD119 (protein, UniProt P15260 18-489, looked up)
Interferon gamma receptor 1: EMGTADLGPSSVPTPTNVTIESYNMNPIVYWEYQIMPQVPVFTVEVKNYGVKNSEWIDACINISHHYCNISDHVGDPSNSLWVRVKARVGQKESAYAKSEEFAVCRDGKIGPPKLDIRKEEKQIMIDIFHPSVFVNGDEQEVDYDPETTCYIRVYNVYVRMNGSEIQYKILTQKEDDCDEIQCQLAIPVSSLNSQYCVSAEGVLHVWGVTTEKSKEVCITIFNSSIKGSLWIPVVAALLLFLVLSLVFICFYIKKINPLKEKSIILPKSLISVVRSATLETKPESKYVSLITSYQPFSLEKEVVCEEPLSPATVPGMHTEDNPGKVEHTEELSSITEVVTTEENIPDVVPGSHLTPIERESSSPLSSNQSEPGSIALNSYHSRNCSESDHSRNGFDTDSSCLESHSSLSDSEFPPNNKGEIKTEGQELITVIKAPTSFGYDKPHVLVDLLVDDSGKESLIGYRPTEDSKEFS
B6: CD355 (protein, UniProt O95727 18-393, looked up)
Cytotoxic and regulatory …: SLTNHTETITVEEGQTLTLKCVTSLRKNSSLQWLTPSGFTIFLNEYPALKNSKYQLLHHSANQLSITVPNVTLQDEGVYKCLHYSDSVSTKEVKVIVLATPFKPILEASVIRKQNGEEHVVLMCSTMRSKPPPQITWLLGNSMEVSGGTLHEFETDGKKCNTTSTLIIHTYGKNSTVDCIIRHRGLQGRKLVAPFRFEDLVTDEETASDALERNSLSSQDPQQPTSTVSVTEDSSTSEIDKEEKEQTTQDPDLTTEANPQYLGLARKKSGILLLTLVSFLIFILFIIVQLFIMKLRKAHVIWKKENEVSEHTLESYRSRSNNEETSSEEKNGQSSHPMRCMNYITKLYSEAKTKRKENVQHSKLEEKHIQVPESIV
B7: CD11a (protein, UniProt P20701 26-1170, looked up)
Integrin alpha-L: YNLDVRGARSFSPPRAGRHFGYRVLQVGNGVIVGAPGEGNSTGSLYQCQSGTGHCLPVTLRGSNYTSKYLGMTLATDPTDGSILACDPGLSRTCDQNTYLSGLCYLFRQNLQGPMLQGRPGFQECIKGNVDLVFLFDGSMSLQPDEFQKILDFMKDVMKKLSNTSYQFAAVQFSTSYKTEFDFSDYVKRKDPDALLKHVKHMLLLTNTFGAINYVATEVFREELGARPDATKVLIIITDGEATDSGNIDAAKDIIRYIIGIGKHFQTKESQETLHKFASKPASEFVKILDTFEKLKDLFTELQKKIYVIEGTSKQDLTSFNMELSSSGISADLSRGHAVVGAVGAKDWAGGFLDLKADLQDDTFIGNEPLTPEVRAGYLGYTVTWLPSRQKTSLLASGAPRYQHMGRVLLFQEPQGGGHWSQVQTIHGTQIGSYFGGELCGVDVDQDGETELLLIGAPLFYGEQRGGRVFIYQRRQLGFEEVSELQGDPGYPLGRFGEAITALTDINGDGLVDVAVGAPLEEQGAVYIFNGRHGGLSPQPSQRIEGTQVLSGIQWFGRSIHGVKDLEGDGLADVAVGAESQMIVLSSRPVVDMVTLMSFSPAEIPVHEVECSYSTSNKMKEGVNITICFQIKSLIPQFQGRLVANLTYTLQLDGHRTRRRGLFPGGRHELRRNIAVTTSMSCTDFSFHFPVCVQDLISPINVSLNFSLWEEEGTPRDQRAQGKDIPPILRPSLHSETWEIPFEKNCGEDKKCEANLRVSFSPARSRALRLTAFASLSVELSLSNLEEDAYWVQLDLHFPPGLSFRKVEMLKPHSQIPVSCEELPEESRLLSRALSCNVSSPIFKAGHSVALQMMFNTLVNSSWGDSVELHANVTCNNEDSDLLEDNSATTIIPILYPINILIQDQEDSTLYVSFTPKGPKIHQVKHMYQVRIQPSIHDHNIPTLEAVVGVPQPPSEGPITHQWSVQMEPPVPCHYEDLERLPDAAEPCLPGALFRCPVVFRQEILVQVIGTLELVGEIEASSMFSLCSSLSISFNSSKHFHLYGSNASLAQVVMKVDVVYEKQMLYLYVLSGIGGLLLLLLIFIVLYKVGFFKRNLKEKMEAGRGVPNGIPAEDSEQLASGQEAGDPGCLKPLHEKDSESGGGKD
B8: IL-28RA (protein, UniProt Q8IU57 21-520, looked up)
Interferon lambda receptor 1: RPRLAPPQNVTLLSQNFSVYLTWLPGLGNPQDVTYFVAYQSSPTRRRWREVEECAGTKELLCSMMCLKKQDLYNKFKGRVRTVSPSSKSPWVESEYLDYLFEVEPAPPVLVLTQTEEILSANATYQLPPCMPPLDLKYEVAFWKEGAGNKTLFPVTPHGQPVQITLQPAASEHHCLSARTIYTFSVPKYSKFSKPTCFLLEVPEANWAFLVLPSLLILLLVIAAGGVIWKTLMGNPWFQRAKMPRALDFSGHTHPVATFQPSRPESVNDLFLCPQKELTRGVRPTPRVRAPATQQTRWKKDLAEDEEEEDEEDTEDGVSFQPYIEPPSFLGQEHQAPGHSEAGGVDSGRPRAPLVPSEGSSAWDSSDRSWASTVDSSWDRAGSSGYLAEKGPGQGPGGDGHQESLPPPEFSKDSGFLEELPEDNLSSWATWGTLPPEPNLVPGGPPVSLQTLTFCWESSPEEEEEARESEIEDSDAGSWGAESTQRTEDRGRTLGHYMAR
B9: TACSTD2 (protein, UniProt P09758 27-323, looked up)
Tumor-associated calcium …: HTAAQDNCTCPTNKMTVCSPDGPGGRCQCRALGSGMAVDCSTLTSKCLLLKARMSAPKNARTLVRPSEHALVDNDGLYDPDCDPEGRFKARQCNQTSVCWCVNSVGVRRTDKGDLSLRCDELVRTHHILIDLRHRPTAGAFNHSDLDAELRRLFRERYRLHPKFVAAVHYEQPTIQIELRQNTSQKAAGDVDIGDAAYYFERDIKGESLFQGRGGLDLRVRGEPLQVERTLIYYLDEIPPKFSMKRLTAGLIAVIVVVVVALVAGMAVLVITNRRKSGKYKKVEIKELGELRKEPSL
B10: CD129 (protein, UniProt Q01113 41-521, looked up)
Interleukin-9 receptor: SVTGEGQGPRSRTFTCLTNNILRIDCHWSAPELGQGSSPWLLFTSNQAPGGTHKCILRGSECTVVLPPEAVLVPSDNFTITFHHCMSGREQVSLVDPEYLPRRHVKLDPPSDLQSNISSGHCILTWSISPALEPMTTLLSYELAFKKQEEAWEQAQHRDHIVGVTWLILEAFELDPGFIHEARLRVQMATLEDDVVEEERYTGQWSEWSQPVCFQAPQRQGPLIPPWGWPGNTLVAVSIFLLLTGPTYLLFKLSPRVKRIFYQNVPSPAMFFQPLYSVHNGNFQTWMGAHGAGVLLSQDCAGTPQGALEPCVQEATALLTCGPARPWKSVALEEEQEGPGTRLPGNLSSEDVLPAGCTEWRVQTLAYLPQEDWAPTSLTRPAPPDSEGSRSSSSSSSSNNNNYCALGCYGGWHLSALPGNTQSSGPIPALACGLSCDHQGLETQQGVAWVLAGHCQRPGLHEDLQGMLLPSVLSKARSWTF

Tested on: D3.5 SOX17-GFP+ PGCs
Test: High-throughput cell-surface marker screening (LEGENDScreen), %PE+
Format: cell-based, human
Details: percentage of cells bound to the PE-conjugated antibody (LEGENDScreen)

Molecule	% PE+ in PGCs
B1	0%
B2	0%
B3	0%
B4	0.2105%
B5	0.3282%
B6	0%
B7	0%
B8	0%
B9	0.1081%
B10	0%

Tested on: D3.5 SOX17-GFP- non-PGCs
Test: as above
Format: cell-based, human
Details: percentage of cells bound to the PE-conjugated antibody (LEGENDScreen)

Molecule	% PE+ in non-PGCs
B1	0%
B2	0.0003541%
B3	0.002529%
B4	0.2417%
B5	0.4326%
B6	0.0001216%
B7	5.663E-05%
B8	6.926E-05%
B9	0.2176%
B10	0.0005766%

Tested on: undifferentiated hPSC (D0)
Test: as above
Format: cell-based, human
Details: percentage of cells bound to the PE-conjugated antibody (LEGENDScreen)

Molecule	% PE+ in H1 UD
B1	0.18%
B2	0.21%
B3	0.12%
B4	18.6%
B5	99.8%
B6	0.19%
B7	0.3%
B8	0.17%
B9	17.9%
B10	0.39%
